# Reference: US10987325B2, “Compositions and uses thereof for treating inflammatory diseases and probiotic compositions” (CHAIN Biotechnology Limited, priority 2016, dated 2021)
# For at least one compound, name, drawing or mass did not settle the structure.
# Tested on: primary human intestinal organoids
# Experiment: Primary human intestinal organoids, TNFα (40 ng/mL) induced inflammation, mRNA of NF-κB and TNFα by qPCR
# Format: cell-based
# Conditions: 10 μM, 18 hours
smiles,measurement,value
"CCCC(=O)O [butyrate, reference compound]",mRNA expression of NF-κB,decreased
same,mRNA expression of TNF-α,decreased
